According to publication PMC3514159:
These are yes or no findings as the source states them, for the method shown. Binding seen in cells or lysates may run through a third protein. Some binding calls cover weakened binding; strength is not graded here.

The chains behind the UniProt entries cited, without tags or fusion partners.
UniProt P09022: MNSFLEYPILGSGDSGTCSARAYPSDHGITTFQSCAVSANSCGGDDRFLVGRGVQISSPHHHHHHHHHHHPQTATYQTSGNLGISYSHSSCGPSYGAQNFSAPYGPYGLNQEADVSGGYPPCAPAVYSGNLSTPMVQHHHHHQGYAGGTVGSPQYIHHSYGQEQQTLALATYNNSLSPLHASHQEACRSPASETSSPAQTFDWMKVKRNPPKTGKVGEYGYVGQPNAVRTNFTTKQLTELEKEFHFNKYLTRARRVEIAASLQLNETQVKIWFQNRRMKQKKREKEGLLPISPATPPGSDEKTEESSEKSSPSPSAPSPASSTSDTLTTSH

Key:
Test in all cases: pull-down; GST-hORF and FLAG-Hoxa1 co-expressed in COS7 or HEK293T; cleared lysate (Tris-HCl pH7.5 20mM, NaCl 120mM, EDTA 0.5mM, NP40 0.5%, glycerol 10%) overnight on glutathione-agarose beads, 3 washes; anti-FLAG western blot
PBX1A = target: T1, PBX1A (UniProt P40424)
T1 sequence: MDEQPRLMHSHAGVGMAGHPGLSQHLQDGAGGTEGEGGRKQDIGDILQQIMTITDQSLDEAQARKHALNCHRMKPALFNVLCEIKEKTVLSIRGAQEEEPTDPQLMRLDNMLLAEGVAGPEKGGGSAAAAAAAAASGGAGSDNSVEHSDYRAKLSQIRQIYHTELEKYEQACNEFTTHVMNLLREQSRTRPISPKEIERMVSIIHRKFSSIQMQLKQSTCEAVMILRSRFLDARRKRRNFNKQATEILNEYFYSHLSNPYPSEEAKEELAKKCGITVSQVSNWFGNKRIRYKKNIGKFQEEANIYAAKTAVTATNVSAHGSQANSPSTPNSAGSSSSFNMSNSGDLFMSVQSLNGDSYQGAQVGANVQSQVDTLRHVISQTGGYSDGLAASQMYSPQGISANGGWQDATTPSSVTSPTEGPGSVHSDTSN

[1] = target: T2, ligand of numb-protein X 2 (human) (UniProt Q8N448)
T2 sequence: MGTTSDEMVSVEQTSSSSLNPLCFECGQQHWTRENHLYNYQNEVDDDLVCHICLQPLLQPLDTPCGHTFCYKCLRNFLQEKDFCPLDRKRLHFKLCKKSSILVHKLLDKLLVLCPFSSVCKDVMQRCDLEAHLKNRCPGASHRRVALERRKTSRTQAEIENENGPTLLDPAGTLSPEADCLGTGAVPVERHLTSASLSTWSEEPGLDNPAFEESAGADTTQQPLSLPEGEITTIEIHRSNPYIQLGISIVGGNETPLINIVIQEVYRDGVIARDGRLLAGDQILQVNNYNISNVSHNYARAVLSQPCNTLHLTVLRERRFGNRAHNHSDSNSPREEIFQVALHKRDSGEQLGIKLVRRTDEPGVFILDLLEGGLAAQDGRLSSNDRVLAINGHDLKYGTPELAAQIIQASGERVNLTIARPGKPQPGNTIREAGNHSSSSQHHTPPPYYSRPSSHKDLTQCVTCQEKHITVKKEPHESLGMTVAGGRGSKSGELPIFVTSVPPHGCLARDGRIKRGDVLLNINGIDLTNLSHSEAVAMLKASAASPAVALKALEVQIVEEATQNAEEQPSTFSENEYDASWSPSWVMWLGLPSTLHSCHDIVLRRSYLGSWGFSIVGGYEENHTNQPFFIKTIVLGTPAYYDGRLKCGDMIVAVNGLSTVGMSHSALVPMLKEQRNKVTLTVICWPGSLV

[2] = target: T3, keratin associated protein 5-9 (human) (UniProt P26371)
T3 sequence: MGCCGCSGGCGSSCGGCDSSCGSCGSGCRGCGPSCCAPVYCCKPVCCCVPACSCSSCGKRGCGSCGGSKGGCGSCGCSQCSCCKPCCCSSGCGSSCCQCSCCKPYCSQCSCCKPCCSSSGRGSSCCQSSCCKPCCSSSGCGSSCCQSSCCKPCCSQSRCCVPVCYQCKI

[3] = target: T4, NEDD4 binding protein 2-like 2 (human) (UniProt Q92802)
T4 sequence: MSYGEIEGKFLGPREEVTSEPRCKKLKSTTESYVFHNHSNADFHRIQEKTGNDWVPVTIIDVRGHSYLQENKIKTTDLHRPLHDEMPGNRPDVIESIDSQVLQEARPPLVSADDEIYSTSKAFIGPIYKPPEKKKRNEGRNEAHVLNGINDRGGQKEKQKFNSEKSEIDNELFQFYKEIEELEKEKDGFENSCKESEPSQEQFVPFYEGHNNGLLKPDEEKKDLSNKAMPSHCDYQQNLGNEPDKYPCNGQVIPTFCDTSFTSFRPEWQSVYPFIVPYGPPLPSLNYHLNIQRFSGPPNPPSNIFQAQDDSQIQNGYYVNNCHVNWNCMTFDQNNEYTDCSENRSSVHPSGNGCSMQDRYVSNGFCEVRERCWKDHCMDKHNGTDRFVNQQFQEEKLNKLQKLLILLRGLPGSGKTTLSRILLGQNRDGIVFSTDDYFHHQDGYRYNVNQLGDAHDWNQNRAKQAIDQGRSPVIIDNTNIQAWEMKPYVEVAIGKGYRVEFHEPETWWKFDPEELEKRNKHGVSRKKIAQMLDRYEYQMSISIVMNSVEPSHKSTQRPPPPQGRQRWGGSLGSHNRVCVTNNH

[4] = target: T5, phospholipid scramblase 4 (human) (UniProt Q9NRQ2)
T5 sequence: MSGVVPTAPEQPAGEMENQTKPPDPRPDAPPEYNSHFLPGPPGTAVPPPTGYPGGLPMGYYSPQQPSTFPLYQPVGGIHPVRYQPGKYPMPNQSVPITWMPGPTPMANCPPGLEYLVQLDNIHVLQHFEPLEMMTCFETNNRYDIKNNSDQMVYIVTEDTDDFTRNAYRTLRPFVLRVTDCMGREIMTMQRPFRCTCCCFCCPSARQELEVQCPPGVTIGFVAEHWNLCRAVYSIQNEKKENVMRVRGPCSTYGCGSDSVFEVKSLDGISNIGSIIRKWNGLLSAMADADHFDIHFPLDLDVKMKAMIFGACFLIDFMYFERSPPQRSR

Measured: binding

FLAG-Hoxa1 (from UniProt P09022 1-331)
binds: all assays above
